# The other results are listed elsewhere or left out.
# B1: LlpA1 (Pseudomonas fluorescens), Q4KHC3 (protein)
# chain: MGSSHHHHHHSSGLVPRGSHMAWIRYDFTDNGSSVLPARYYMAPNQYLQSPNKRFKLLFQADGNLALYDGAQLAWVADQNTPFTNVSKGNKKDPMMVFMNYGFVLDDPLRGRIWSTTPSDPTMGSREDASLRAFTQVQDDGNIVTVDTIPHWYAPNGRVFTPAVGAAMIIGGTTELVPGQFYSAGEHSLVFQGDGNLVVYGPNSSVIWATYTQNKGGVRCVMQEDGNLVIYAANNGVVWQSGTGGHPGATIRLQANGSFTIVTERPVWARFGYTPTIKPPRVFYPDHKWKTGSYTWNNVF
# Tests used:
# Assay in all cases: glycan array binding signal (z-score within array); higher = stronger binding
# Conditions in all cases: glycan notation: IUPAC condensed, linker removed
# Fuc(b1-3)GlcNAc = target: Fuc(b1-3)GlcNAc
# How it was run: (§1)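 The binding signal is a Z-score computed within each array and averaged over linkers. Arrays of the same protein sequence at different concentrations or buffers were also averaged together. Data originate from 3228 arrays in the Consortium for Functional Glycomics database, kept only where the protein sequence was available.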
# Gal(a1-2)Gal = target: Gal(a1-2)Gal
# How it was run: as §1
# Gal(a1-3)Gal = target: Gal(a1-3)Gal
# How it was run: as §1
# Gal(a1-3)Gal(b1-3)GlcNAc = target: Gal(a1-3)Gal(b1-3)GlcNAc
# How it was run: as §1
# [1] = target: Gal(a1-3)Gal(b1-3)GlcNAc(b1-2)Man
# How it was run: as §1
# [2] = target: Gal(a1-3)Gal(b1-3)GlcNAc(b1-2)Man(a1-3)[Gal(a1-3)Gal(b1-3)GlcNAc(b1-2)Man(a1-6)]Man(b1-4)GlcNAc(b1-4)GlcNAc
# How it was run: as §1
# [3] = target: Gal(a1-3)Gal(b1-3)GlcNAc(b1-3)GalNAc
# How it was run: as §1
# [4] = target: Gal(a1-3)Gal(b1-3)GlcNAc(b1-6)GalNAc
# How it was run: as §1
# [5] = target: Gal(a1-3)Gal(b1-3)[Fuc(a1-4)]GlcNAc(b1-2)Man(a1-3)[Gal(a1-3)Gal(b1-3)[Fuc(a1-4)]GlcNAc(b1-2)Man(a1-6)]Man(b1-4)GlcNAc(b1-4)GlcNAc
# How it was run: as §1
# Gal(a1-3)Gal(b1-4)Glc = target: Gal(a1-3)Gal(b1-4)Glc
# How it was run: as §1
# Gal(a1-3)Gal(b1-4)GlcNAc = target: Gal(a1-3)Gal(b1-4)GlcNAc
# How it was run: as §1
# [6] = target: Gal(a1-3)Gal(b1-4)GlcNAc(b1-2)Man
# How it was run: as §1
# [7] = target: Gal(a1-3)Gal(b1-4)GlcNAc(b1-2)Man(a1-3)[Gal(a1-3)Gal(b1-4)GlcNAc(b1-2)Man(a1-6)]Man(b1-4)GlcNAc(b1-4)GlcNAc
# How it was run: as §1
# [8] = target: Gal(a1-3)Gal(b1-4)GlcNAc(b1-3)GalNAc
# How it was run: as §1
# [9] = target: Gal(a1-3)Gal(b1-4)GlcNAc(b1-6)GalNAc
# How it was run: as §1
# [10] = target: Gal(a1-3)Gal(b1-4)[Fuc(a1-3)]GlcNAc
# How it was run: as §1
# [11] = target: Gal(a1-3)Gal(b1-4)[Fuc(a1-3)]GlcNAc(b1-2)Man(a1-3)[Gal(a1-3)Gal(b1-4)[Fuc(a1-3)]GlcNAc(b1-2)Man(a1-6)]Man(b1-4)GlcNAc(b1-4)GlcNAc
# How it was run: as §1
# Gal(a1-3)GalNAc = target: Gal(a1-3)GalNAc
# How it was run: as §1
# [12] = target: Gal(a1-3)[Gal(a1-4)]Gal(b1-4)GlcNAc
# How it was run: as §1
# [13] = target: Gal(a1-4)Gal(b1-3)GlcNAc(b1-2)Man(a1-3)[Gal(a1-4)Gal(b1-3)GlcNAc(b1-2)Man(a1-6)]Man(b1-4)GlcNAc(b1-4)GlcNAc
# How it was run: as §1
# Gal(a1-4)Gal(b1-4)Glc = target: Gal(a1-4)Gal(b1-4)Glc
# How it was run: as §1
# Gal(a1-4)Gal(b1-4)GlcNAc = target: Gal(a1-4)Gal(b1-4)GlcNAc
# How it was run: as §1
# [14] = target: Gal(a1-4)Gal(b1-4)GlcNAc(b1-2)Man(a1-3)[Gal(a1-4)Gal(b1-4)GlcNAc(b1-2)Man(a1-6)]Man(b1-4)GlcNAc(b1-4)GlcNAc
# How it was run: as §1
# [15] = target: Gal(a1-4)Gal(b1-4)GlcNAc(b1-3)Gal(b1-4)Glc
# How it was run: as §1
# Gal(a1-4)GlcNAc = target: Gal(a1-4)GlcNAc
# How it was run: as §1
# Gal(a1-6)Glc = target: Gal(a1-6)Glc
# How it was run: as §1
# Gal(b1-2)Gal = target: Gal(b1-2)Gal
# How it was run: as §1
# Gal(b1-3)Gal = target: Gal(b1-3)Gal
# How it was run: as §1
# Gal(b1-3)Gal(b1-4)GlcNAc = target: Gal(b1-3)Gal(b1-4)GlcNAc
# How it was run: as §1
# [16] = target: Gal(b1-3)Gal(b1-4)GlcNAc(b1-2)Man(a1-3)[Gal(b1-3)Gal(b1-4)GlcNAc(b1-2)Man(a1-6)]Man(b1-4)GlcNAc(b1-4)GlcNAc
# How it was run: as §1
# Gal(b1-3)GalNAc = target: Gal(b1-3)GalNAc
# How it was run: as §1
# [17] = target: Gal(b1-3)GalNAc(a1-3)[Fuc(a1-2)]Gal(b1-4)Glc
# How it was run: as §1
# [18] = target: Gal(b1-3)GalNAc(a1-3)[Fuc(a1-2)]Gal(b1-4)GlcNAc
# How it was run: as §1
# Gal(b1-3)GalNAc(b1-3)Gal = target: Gal(b1-3)GalNAc(b1-3)Gal
# How it was run: as §1
# [19] = target: Gal(b1-3)GalNAc(b1-3)Gal(a1-4)Gal(b1-4)Glc
# How it was run: as §1
# [20] = target: Gal(b1-3)GalNAc(b1-4)Gal(b1-4)Glc
# How it was run: as §1
# [21] = target: Gal(b1-3)GalNAc(b1-4)[Neu5Ac(a2-3)]Gal(b1-4)Glc
# How it was run: as §1
binder,measurement,setting,value
B1,glycan array binding signal (z-score),Fuc(b1-3)GlcNAc,0.294
same,glycan array binding signal (z-score),Gal(a1-2)Gal,0.98
same,glycan array binding signal (z-score),Gal(a1-3)Gal,0.304
same,glycan array binding signal (z-score),Gal(a1-3)Gal(b1-3)GlcNAc,0.584
same,glycan array binding signal (z-score),[1],-0.352
same,glycan array binding signal (z-score),[2],0.721
same,glycan array binding signal (z-score),[3],-0.101
same,glycan array binding signal (z-score),[4],-0.107
same,glycan array binding signal (z-score),[5],0.95
same,glycan array binding signal (z-score),Gal(a1-3)Gal(b1-4)Glc,-0.111
same,glycan array binding signal (z-score),Gal(a1-3)Gal(b1-4)GlcNAc,-0.425
same,glycan array binding signal (z-score),[6],-0.521
same,glycan array binding signal (z-score),[7],0.803
same,glycan array binding signal (z-score),[8],-0.077
same,glycan array binding signal (z-score),[9],0.065
same,glycan array binding signal (z-score),[10],-0.732
same,glycan array binding signal (z-score),[11],0.98
same,glycan array binding signal (z-score),Gal(a1-3)GalNAc,-0.274
same,glycan array binding signal (z-score),[12],2.71
same,glycan array binding signal (z-score),[13],0.331
same,glycan array binding signal (z-score),Gal(a1-4)Gal(b1-4)Glc,0.483
same,glycan array binding signal (z-score),Gal(a1-4)Gal(b1-4)GlcNAc,0.4
same,glycan array binding signal (z-score),[14],0.526
same,glycan array binding signal (z-score),[15],-0.766
same,glycan array binding signal (z-score),Gal(a1-4)GlcNAc,0.66
same,glycan array binding signal (z-score),Gal(a1-6)Glc,0.047
same,glycan array binding signal (z-score),Gal(b1-2)Gal,-0.134
same,glycan array binding signal (z-score),Gal(b1-3)Gal,-0.594
same,glycan array binding signal (z-score),Gal(b1-3)Gal(b1-4)GlcNAc,0.306
same,glycan array binding signal (z-score),[16],0.896
same,glycan array binding signal (z-score),Gal(b1-3)GalNAc,-0.091
same,glycan array binding signal (z-score),[17],-0.134
same,glycan array binding signal (z-score),[18],-0.567
same,glycan array binding signal (z-score),Gal(b1-3)GalNAc(b1-3)Gal,-0.423
same,glycan array binding signal (z-score),[19],-0.628
same,glycan array binding signal (z-score),[20],-0.392
same,glycan array binding signal (z-score),[21],-0.058

# Quoted at random: 3 records from the list.
binder,measurement,setting,value
B1,glycan array binding signal (z-score),[19],-0.628
same,glycan array binding signal (z-score),[16],0.896
same,glycan array binding signal (z-score),[13],0.331

# Source: the supplement of paper PMC8728848
